The target in assay [1] is T1, extracellular N-terminal domain of CD133 (residues 20–108), yeast two-hybrid bait (human) (UniProt O43490).
T1 sequence: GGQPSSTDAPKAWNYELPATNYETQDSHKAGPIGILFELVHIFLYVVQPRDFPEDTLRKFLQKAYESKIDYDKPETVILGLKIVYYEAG
The experiment in a line: two-hybrid; bait CD133(20-108) in pGBKT7 screened against pACT2 human cDNA library (human fetal brain); four positive clones from 1 × 10^6 clones.

By UniProt entry, the sequences of proteins in these tests, tags left out. Where a name states a change or a piece, a line headed by the entry shows the natural chain unless it says otherwise. Residues count along the entry.
His-COL1A1(972-1206) (P02452, residues 972-1206): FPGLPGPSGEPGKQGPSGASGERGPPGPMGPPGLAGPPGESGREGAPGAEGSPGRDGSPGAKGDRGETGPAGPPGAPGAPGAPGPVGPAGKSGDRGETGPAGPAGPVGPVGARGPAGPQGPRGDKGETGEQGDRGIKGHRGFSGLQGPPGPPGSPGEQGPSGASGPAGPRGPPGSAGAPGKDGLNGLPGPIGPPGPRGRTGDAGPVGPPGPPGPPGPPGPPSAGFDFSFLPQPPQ
His-COL1A1(972-1206) deletion mutant lacking amino acids 1193–1206 (P02452, residues 972-1192): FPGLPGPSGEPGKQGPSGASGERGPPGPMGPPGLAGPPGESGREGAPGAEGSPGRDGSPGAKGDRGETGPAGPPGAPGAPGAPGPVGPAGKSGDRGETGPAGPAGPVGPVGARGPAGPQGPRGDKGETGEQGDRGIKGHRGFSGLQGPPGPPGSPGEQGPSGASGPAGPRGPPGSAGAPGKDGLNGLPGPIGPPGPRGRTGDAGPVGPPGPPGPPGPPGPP

Assay [2] has as its target T2, CD133(43-81)-Strep (human) (UniProt O43490).
T2 sequence: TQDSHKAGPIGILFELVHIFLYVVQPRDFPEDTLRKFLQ
As to the kind of experiment: pull-down; Strep pull-down assay, in vitro (Figure S1I); method not given.

The target of assay [3] is T3, GST-CD133(20-108) (human) (UniProt O43490).
T3 sequence: T1 sequence
The experiment in a line: pull-down; GST pull-down: 10 µg purified GST fusion protein with GST-beads incubated with His-COL1A1(972-1206) protein 1 h at 4 °C; washed three times with RIPA (1% Triton X-100, 50 mM Tris pH 7.4, 150 mM NaCl, 2 mM EDTA); blot with anti-His antibody; both purified.

No constants are given. Whether binding was seen depends on the method and setting. For part of these data: Binding seen in cells or lysates may run through a third protein. Some results given as binding are weak or reduced against the parent protein; the word gives no strength. For part of these data: Where a sequence is shown, tags or fusion partners need not be part of it.

“COL1A1 (972-1206), clone from the pACT2 human fetal brain cDNA library (from UniProt P02452 972-1206) (domain or fragment)”: the binding result in assay [1] is “binds”.

As to “His-COL1A1(972-1206) (from UniProt P02452 972-1206) (domain or fragment)”, in assay [2], the binding entry is “binds”.

For the substance “His-COL1A1(972-1206) deletion mutant lacking amino acids 1193–1206 (from UniProt P02452 972-1192) (domain or fragment)”, the binding entry in assay [3] is recorded as “binds”.
